For at least one compound, name, drawing or mass did not settle the structure.
How the values were obtained:
Sphaerotheca fuliginea = experiment: Sphaerotheca test (cucumbers)/preventive; assay type: in vivo; details: Table 9; application rate 200 ppm a.i.
Source text: (§1) A synergistic effect of fungicides is always present when the fungicidal activity of the active compound combinations exceeds the total of the activities of the active compounds when applied individually. The expected activity for a given combination of two active compounds can be calculated as follows (cf. Colby, S. R., “Calculating Synergistic and Antagonistic Responses of Herbicide Combinations”, Weeds 1967, 15, 20-22):
(§2) If • X is the efficacy when active compound A is applied at an application rate of m ppm (or g/ha), • Y is the efficacy when active compound B is applied at an application rate of n ppm (or g/ha), • E is the efficacy when the active compounds A and B are applied at application rates of m and n ppm (or g/ha), respectively, and
Sphaerotheca Test (Cucumbers)/Preventive • Solvent: 24.5 parts by weight of acetone • 24.5 parts by weight of dimethylacetamide • Emulsifier: 1 part by weight of alkylaryl polyglycol ether
(§3) To produce a suitable preparation of active compound, 1 part by weight of active compound is mixed with the stated amounts of solvent and emulsifier, and the concentrate is diluted with water to the desired concentration.
(§4) To test for preventive activity, young plants are sprayed with the preparation of active compound at the stated rate of application. […]
The test is evaluated 7 days after the inoculation. […]

Venturia inaequalis = experiment: Venturia test (apples)/preventive; assay type: in vivo; details: Table 13; application rate 400 ppm a.i.
Source text: as §1, §2
Venturia test (apples)/preventive • Solvent: 24.5 parts by weight of acetone • 24.5 parts by weight of dimethylacetamide • Emulsifier: 1 part by weight of alkylaryl polyglycol ether
as §3, §4
The test is evaluated 10 days after the inoculation. […]

`[S]` [5.30, sulphur] was tested, and the “Efficacy in % found” value (Sphaerotheca fuliginea) was 19% and the “Efficacy in % found” value (Venturia inaequalis) was 11%.

From patent publication US12102087B2 (priority 2012, dated 2024)
